Results are given in words; binding and its absence hold for the method and conditions named. Binding can be weak; no strength is given.
Target: GST–AMPK-C (amino acids 291–552 of AMPKα2) (UniProt P54646)
Assay: pull-down; GST–AMPK-C immobilised on glutathione beads, incubated with His–Arf6-T27N; 25 mM Tris-HCl pH 7.5, 150 mM NaCl, 0.5% NP-40, 5 mM MgCl2, 1 h at 4°C; anti-His western blot; both purified

By UniProt entry, the sequences of proteins in these tests, tags left out. Where a name states a change or a piece, a line headed by the entry shows the natural chain unless it says otherwise. Residues count along the entry.
UniProt P54646, residues 291-552: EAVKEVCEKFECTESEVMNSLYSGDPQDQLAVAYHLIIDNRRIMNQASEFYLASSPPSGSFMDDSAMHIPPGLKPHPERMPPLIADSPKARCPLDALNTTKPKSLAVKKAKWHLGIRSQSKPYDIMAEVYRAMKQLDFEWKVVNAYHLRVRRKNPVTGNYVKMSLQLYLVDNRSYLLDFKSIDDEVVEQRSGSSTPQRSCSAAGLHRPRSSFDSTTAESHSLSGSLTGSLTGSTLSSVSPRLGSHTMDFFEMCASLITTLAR
UniProt P62330: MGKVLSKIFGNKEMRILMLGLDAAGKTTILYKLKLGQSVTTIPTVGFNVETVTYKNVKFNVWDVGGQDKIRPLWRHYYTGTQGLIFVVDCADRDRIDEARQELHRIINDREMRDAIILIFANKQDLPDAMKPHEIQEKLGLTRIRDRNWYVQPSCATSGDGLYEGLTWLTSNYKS

binding: binds
Substance: His–Arf6-T27N (d13N-T27N) (from UniProt P62330)
